From the supplement of paper PMC10849652
This is one part of the list.

The chains behind the UniProt entries cited, without tags or fusion partners. Where a name states a change or a piece, a line headed by the entry shows the natural chain unless it says otherwise.
UniProt Q15738: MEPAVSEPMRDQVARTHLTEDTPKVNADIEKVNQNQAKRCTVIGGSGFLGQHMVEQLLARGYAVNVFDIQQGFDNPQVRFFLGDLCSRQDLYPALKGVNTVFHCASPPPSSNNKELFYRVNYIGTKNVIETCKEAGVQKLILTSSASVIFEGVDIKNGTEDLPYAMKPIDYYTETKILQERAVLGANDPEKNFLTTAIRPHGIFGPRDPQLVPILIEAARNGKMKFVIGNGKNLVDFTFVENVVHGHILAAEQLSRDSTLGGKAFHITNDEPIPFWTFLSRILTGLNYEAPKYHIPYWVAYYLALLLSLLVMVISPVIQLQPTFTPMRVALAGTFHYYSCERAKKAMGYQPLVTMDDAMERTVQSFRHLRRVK
UniProt Q86UT6, whole entry, looked up: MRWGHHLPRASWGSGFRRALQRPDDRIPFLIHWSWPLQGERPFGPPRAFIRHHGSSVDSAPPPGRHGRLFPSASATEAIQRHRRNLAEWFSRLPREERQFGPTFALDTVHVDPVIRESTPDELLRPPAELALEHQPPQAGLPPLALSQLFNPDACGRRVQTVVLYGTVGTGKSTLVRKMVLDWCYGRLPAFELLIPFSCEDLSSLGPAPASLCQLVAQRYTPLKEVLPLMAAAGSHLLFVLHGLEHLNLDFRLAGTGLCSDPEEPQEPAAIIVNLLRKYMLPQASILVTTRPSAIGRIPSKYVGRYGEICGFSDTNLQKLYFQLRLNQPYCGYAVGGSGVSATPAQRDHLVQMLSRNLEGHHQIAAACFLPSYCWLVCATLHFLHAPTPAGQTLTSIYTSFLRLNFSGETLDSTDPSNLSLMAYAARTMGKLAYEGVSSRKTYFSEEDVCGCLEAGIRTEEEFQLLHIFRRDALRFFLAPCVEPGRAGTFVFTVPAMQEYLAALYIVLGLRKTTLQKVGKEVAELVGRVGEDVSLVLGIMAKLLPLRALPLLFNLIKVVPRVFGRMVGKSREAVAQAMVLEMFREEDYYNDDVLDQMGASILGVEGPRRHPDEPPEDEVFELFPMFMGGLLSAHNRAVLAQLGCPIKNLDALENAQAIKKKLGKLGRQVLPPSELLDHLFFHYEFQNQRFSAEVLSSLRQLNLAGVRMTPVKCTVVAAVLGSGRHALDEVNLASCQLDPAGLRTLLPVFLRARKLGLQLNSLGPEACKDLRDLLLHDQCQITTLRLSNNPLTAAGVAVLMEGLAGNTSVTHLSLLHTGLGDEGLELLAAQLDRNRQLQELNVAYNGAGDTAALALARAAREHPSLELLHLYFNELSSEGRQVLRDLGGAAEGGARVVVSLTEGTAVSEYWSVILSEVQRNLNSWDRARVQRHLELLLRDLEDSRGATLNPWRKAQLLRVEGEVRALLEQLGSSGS
UniProt P46087: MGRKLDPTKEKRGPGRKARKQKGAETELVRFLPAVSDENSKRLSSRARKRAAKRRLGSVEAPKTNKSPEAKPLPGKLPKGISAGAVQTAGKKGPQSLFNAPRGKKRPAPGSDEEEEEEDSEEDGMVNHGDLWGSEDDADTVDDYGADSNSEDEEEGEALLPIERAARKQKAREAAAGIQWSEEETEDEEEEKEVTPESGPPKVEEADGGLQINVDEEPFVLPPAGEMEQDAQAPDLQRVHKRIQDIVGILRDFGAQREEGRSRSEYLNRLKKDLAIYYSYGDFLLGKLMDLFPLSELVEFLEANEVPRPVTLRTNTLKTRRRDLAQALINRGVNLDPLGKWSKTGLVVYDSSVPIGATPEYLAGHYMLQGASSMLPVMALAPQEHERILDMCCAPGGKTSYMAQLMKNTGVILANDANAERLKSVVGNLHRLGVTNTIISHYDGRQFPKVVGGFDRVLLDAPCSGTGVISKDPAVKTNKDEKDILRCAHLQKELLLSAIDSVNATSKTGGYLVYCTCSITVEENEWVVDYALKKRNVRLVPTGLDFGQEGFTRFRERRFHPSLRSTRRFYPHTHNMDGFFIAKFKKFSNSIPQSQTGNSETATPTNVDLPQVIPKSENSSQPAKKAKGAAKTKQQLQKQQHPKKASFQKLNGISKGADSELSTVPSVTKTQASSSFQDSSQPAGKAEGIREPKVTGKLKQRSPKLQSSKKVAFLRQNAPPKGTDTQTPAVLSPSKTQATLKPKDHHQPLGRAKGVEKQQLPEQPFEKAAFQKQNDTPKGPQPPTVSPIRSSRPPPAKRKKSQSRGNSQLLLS
UniProt Q9Y5B8, whole entry, looked up: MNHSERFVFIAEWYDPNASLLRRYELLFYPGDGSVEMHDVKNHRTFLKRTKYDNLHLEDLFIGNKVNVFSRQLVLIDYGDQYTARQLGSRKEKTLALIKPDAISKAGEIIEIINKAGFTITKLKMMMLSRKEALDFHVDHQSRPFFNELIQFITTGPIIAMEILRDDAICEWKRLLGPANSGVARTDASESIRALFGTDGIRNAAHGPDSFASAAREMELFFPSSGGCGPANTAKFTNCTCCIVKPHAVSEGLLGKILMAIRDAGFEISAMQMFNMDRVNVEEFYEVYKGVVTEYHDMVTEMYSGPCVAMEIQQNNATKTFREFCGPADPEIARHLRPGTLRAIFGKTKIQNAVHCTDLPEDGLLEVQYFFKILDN
UniProt O60361, whole entry, looked up: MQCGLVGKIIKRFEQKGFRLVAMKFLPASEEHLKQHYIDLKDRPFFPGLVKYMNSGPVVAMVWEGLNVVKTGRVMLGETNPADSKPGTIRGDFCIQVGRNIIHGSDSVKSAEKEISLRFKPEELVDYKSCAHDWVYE
UniProt Q9UMY1: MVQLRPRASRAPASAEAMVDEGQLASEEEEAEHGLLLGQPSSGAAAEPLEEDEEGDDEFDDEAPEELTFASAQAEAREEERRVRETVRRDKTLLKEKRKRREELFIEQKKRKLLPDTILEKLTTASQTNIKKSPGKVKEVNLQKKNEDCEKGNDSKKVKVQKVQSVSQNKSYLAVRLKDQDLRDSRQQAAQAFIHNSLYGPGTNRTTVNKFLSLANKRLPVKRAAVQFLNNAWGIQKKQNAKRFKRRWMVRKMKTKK
UniProt P49116: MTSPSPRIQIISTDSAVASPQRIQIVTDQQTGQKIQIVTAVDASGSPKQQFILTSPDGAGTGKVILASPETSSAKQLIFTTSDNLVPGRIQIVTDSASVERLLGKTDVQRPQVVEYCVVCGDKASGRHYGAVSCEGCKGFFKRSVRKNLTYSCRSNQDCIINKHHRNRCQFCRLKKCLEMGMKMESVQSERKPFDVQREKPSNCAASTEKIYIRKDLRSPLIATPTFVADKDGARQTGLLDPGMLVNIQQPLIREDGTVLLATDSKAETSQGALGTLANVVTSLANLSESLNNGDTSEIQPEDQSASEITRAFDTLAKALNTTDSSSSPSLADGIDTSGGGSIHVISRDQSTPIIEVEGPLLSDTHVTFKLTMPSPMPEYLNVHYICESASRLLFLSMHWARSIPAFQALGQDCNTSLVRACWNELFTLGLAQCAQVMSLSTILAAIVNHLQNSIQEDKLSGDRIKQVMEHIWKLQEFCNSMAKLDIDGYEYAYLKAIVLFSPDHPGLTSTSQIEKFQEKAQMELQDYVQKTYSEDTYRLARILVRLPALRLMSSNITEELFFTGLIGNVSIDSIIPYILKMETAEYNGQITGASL
UniProt O60551: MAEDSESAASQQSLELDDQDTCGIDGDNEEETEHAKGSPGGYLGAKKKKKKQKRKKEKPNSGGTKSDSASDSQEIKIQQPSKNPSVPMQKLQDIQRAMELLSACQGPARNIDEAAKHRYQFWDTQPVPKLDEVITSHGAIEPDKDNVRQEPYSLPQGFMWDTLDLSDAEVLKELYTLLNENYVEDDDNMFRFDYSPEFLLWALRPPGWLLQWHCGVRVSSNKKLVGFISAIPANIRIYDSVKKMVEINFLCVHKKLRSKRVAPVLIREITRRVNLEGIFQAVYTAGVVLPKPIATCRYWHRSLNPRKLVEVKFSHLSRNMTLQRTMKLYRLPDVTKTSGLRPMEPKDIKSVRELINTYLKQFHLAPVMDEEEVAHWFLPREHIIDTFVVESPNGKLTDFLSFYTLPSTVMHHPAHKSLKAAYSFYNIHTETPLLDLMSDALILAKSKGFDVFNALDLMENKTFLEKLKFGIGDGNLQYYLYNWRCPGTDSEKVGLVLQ
UniProt O75607: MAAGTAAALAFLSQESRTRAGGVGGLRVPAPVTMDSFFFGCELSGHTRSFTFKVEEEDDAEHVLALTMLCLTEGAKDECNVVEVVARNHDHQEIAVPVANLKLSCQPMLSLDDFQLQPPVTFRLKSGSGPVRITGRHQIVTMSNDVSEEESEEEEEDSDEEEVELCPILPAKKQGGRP
UniProt Q96IV0: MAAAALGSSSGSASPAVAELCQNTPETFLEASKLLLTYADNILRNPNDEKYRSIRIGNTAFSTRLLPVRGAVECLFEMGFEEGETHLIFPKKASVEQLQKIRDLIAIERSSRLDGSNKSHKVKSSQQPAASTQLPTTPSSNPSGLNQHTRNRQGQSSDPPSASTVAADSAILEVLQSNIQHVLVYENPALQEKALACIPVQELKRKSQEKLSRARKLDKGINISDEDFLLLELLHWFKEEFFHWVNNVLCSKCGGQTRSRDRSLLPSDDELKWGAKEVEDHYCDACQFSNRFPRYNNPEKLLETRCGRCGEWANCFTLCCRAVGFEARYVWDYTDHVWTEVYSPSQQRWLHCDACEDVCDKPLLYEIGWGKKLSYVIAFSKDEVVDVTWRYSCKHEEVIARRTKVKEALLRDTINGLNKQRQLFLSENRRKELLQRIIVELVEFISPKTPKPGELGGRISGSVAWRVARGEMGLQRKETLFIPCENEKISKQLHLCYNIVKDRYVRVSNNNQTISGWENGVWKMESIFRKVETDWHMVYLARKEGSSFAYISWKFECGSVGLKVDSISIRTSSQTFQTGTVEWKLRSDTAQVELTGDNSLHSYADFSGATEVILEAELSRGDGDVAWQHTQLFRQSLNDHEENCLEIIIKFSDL
UniProt O75323: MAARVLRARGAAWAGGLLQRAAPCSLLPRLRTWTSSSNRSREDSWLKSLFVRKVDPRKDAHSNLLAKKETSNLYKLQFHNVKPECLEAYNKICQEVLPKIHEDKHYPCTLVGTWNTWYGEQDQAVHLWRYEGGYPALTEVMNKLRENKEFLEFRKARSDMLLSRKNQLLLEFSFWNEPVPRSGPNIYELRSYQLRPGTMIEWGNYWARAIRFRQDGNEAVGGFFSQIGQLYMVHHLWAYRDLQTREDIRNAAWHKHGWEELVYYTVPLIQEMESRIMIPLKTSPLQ
UniProt Q12980: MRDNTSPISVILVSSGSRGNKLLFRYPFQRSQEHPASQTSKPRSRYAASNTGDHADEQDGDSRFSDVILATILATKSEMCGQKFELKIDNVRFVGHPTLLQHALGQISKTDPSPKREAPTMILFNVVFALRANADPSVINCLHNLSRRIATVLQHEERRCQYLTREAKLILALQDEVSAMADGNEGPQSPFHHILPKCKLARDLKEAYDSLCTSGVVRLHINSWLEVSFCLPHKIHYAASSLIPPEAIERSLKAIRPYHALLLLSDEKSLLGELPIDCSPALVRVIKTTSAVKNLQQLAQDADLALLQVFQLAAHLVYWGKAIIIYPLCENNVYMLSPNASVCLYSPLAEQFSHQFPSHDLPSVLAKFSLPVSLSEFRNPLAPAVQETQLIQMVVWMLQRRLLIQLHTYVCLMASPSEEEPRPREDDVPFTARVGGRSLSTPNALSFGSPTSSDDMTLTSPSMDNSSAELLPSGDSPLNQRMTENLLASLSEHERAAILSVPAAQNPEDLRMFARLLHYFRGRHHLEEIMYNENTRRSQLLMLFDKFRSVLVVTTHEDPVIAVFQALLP
UniProt Q9NSY0: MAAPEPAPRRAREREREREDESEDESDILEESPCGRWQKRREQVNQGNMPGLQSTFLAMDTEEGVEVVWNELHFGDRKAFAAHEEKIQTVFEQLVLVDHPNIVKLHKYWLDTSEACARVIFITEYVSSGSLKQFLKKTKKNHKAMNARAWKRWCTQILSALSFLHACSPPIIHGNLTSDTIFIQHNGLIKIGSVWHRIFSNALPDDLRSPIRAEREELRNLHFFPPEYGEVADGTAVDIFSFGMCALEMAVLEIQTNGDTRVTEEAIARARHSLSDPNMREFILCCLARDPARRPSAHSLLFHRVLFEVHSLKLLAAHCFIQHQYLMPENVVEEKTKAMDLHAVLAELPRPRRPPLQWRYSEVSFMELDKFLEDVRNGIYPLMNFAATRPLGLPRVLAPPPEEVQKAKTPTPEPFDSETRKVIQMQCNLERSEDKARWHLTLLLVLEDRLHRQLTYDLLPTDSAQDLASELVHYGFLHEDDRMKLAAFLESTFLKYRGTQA

How the values were obtained:
Test in all cases: log2 fold change, soluble protein after heating vs DMSO (PISA); higher = thermal stabilisation; K562 cells, 10 uM, 30 min; active = over 0.2 and 3.5 SD of the protein, either way, in both replicates (recomputed)
[1] = compound: CS(=O)(=O)c1ccc(-c2cnc(N)c(C(=O)Nc3ccccc3)n2)cc1
In short: (§1)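 Values are thermal stability changes relative to control samples and are taken from duplicates. They are stated as log2 fold changes. Before quantification by TMTpro 16plex LC-MS/MS with equalised channel sums, K562 cells at 2×10^6 cells/mL were treated with 10 μM compound for 30 min, heated in aliquots for 3 min across 48°C-58°C, pooled, extracted in PBS with 0.5% NP-40 at 4°C, and centrifuged at 21,000xg for 90 min to give the soluble supernatant.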

[2] = compound: C[C@@H](Oc1cc(-c2cnn(C3CCNCC3)c2)cnc1N)c1c(Cl)ccc(F)c1Cl [crizotinib]
In short: as §1

[3] = compound: C[C@@H]1COCCN1C2=NC(=NC(=C2)C3(CC3)S(=O)(=O)C)C4=C5C=CNC5=CC=C4
In short: as §1

[4] = compound: C[C@H](C1=CC=C(C=C1)C(=O)NC2=C3C=CNC3=NC=C2)N
In short: as §1

[5] = compound: Cc1cc(Nc2cc(CN3CCOCC3)c3nc(C)c(Cc4ccc(Cl)cc4F)n3n2)n[nH]1 [gandotinib]
In short: as §1

[6] = compound: Cc1cc(SCc2sc(-c3ccc(C(F)(F)F)cc3)nc2C)ccc1OCC(=O)O
In short: as §1

[7] = compound: Cc1ccc(-n2nc(C(C)(C)C)cc2NC(=O)Nc2ccc(OCCN3CCOCC3)c3ccccc23)cc1 [doramapimod]
In short: as §1

[8] = compound: Cc1ccc(C(=O)N(CCCN)[C@@H](c2nc3cc(Cl)ccc3c(=O)n2Cc2ccccc2)C(C)C)cc1 [ispinesib]
In short: as §1

[9] = compound: Cc1ccc(NC(=O)c2ccc(CN3CC[C@H](N(C)C)C3)c(C(F)(F)F)c2)cc1Nc1nccc(-c2cncnc2)n1 [bafetinib]
In short: as §1

[10] = compound: Cc1cccc(CC(=O)N2CCc3c2ccc(-c2cn(C)c4ncnc(N)c24)c3F)n1
In short: as §1

[11] = compound: Cc1cn(-c2cc(NC(=O)c3ccc(C)c(Nc4nccc(-c5cccnc5)n4)c3)cc(C(F)(F)F)c2)cn1 [nilotinib]
In short: as §1

[12] = compound: Cc1nc(Nc2n[nH]c3c2CN(C(=O)N[C@H](CN(C)C)c2ccccc2)C3(C)C)c2sccc2n1
In short: as §1

[13] = compound: Cc1nc(Nc2ncc(C(=O)Nc3c(C)cccc3Cl)s2)cc(N2CCN(CCO)CC2)n1 [dasatinib]
In short: as §1

[14] = compound: Cc1ncc(-c2ccnc(Nc3ccc(S(C)(=O)=O)cc3)n2)n1C(C)C
In short: as §1

[15] = compound: Cn1cc(-c2ccc3c(c2)CCN3C(=O)Cc2cccc(C(F)(F)F)c2)c2c(N)ncnc21
In short: as §1

[16] = compound: Cn1cc(-c2ccc3nnc(C(F)(F)c4ccc5ncccc5c4)n3n2)cn1
In short: as §1

[17] = compound: Cn1cncc1[C@@](N)(c1ccc(Cl)cc1)c1ccc2c(c1)c(-c1cccc(Cl)c1)cc(=O)n2C [tipifarnib]
In short: as §1

[18] = compound: FC(F)(F)c1ccc(/C=C/c2nc(COc3ccc(CCCCn4ccnn4)cc3)co2)cc1 [mubritinib]
In short: as §1

[19] = compound: Cc1cc(Nc2cc(N3CCN(C)CC3)nc(Sc3ccc(NC(=O)C4CC4)cc3)n2)n[nH]1 [tozasertib]
In short: as §1

[20] = compound: C[C@H](Nc1ncnc2nc[nH]c12)c1cc2cccc(Cl)c2c(=O)n1-c1ccccc1 [duvelisib]
In short: as §1

Measured: log2 fold change

NSDHL (UniProt Q15738)
inactive: [1] 0.04 | [3] 0.045 | [4] -0.105 | [5] 0.239 | [6] 0.058 | [8] -0.016 | [9] 0.006 | [10] 0.014 | [11] 0.033 | [12] -0.021 | [13] 0.054 | [14] 0.001 | [15] 0.11 | [16] 0.133 | [17] 0.029 | [18] 0.164
active: [2] 0.314 | [7] 0.22

NLRX1 (UniProt Q86UT6)
inactive: [1] -0.062 | [2] 0.265 | [3] 0.037 | [19] -0.117 | [7] -0.564 | [11] -0.13 | [12] 0.162 | [14] -0.168 | [17] -0.13

NMD3 (UniProt Q96D46)
active: [12] 0.316
inactive: [1] 0.094 | [2] 0.003 | [3] 0.122 | [4] -0.179 | [5] 0.007 | [6] 0.03 | [7] -0.013 | [8] 0.139 | [9] 0.071 | [10] 0.03 | [11] 0.025 | [13] 0.014 | [14] 0.123 | [15] 0.083 | [16] 0.028 | [17] -0.107 | [18] 0.083

NR2C1 (UniProt P13056)
inactive: [1] 0.027 | [2] -0.217 | [3] 0.071 | [7] 0.015 | [9] -0.298 | [11] -0.004 | [12] -0.028 | [14] 0.172 | [18] 0.034

Looked up one by one from the list above, 2 records:
NR2C1 (UniProt P13056)
inactive: [1] 0.027 | [2] -0.217 | [3] 0.071 | [7] 0.015 | [9] -0.298 | [11] -0.004 | [12] -0.028 | [14] 0.172 | [18] 0.034

NLRX1 (UniProt Q86UT6)
inactive: [1] -0.062 | [2] 0.265 | [3] 0.037 | [19] -0.117 | [7] -0.564 | [11] -0.13 | [12] 0.162 | [14] -0.168 | [17] -0.13

Going on with the list.

NOP2 isoform 4 (UniProt P46087)
inactive: [1] 0 | [2] -0.127 | [3] -0.25 | [4] 0.673 | [5] 0.231 | [6] -0.022 | [7] 0.219 | [8] 0.163 | [9] 0.274 | [10] -0.065 | [11] 0.111 | [12] 0.066 | [13] 0.344 | [14] 0.096 | [15] -0.568 | [16] -0.319 | [17] 0.214 | [18] -0.304

NRDC isoform 2 (UniProt O43847)
inactive: [1] 0.034 | [2] -0.065 | [3] 0.054 | [4] -0.034 | [5] -0.029 | [6] 0.089 | [7] -0.036 | [8] -0.022 | [9] 0.022 | [10] 0.072 | [11] -0.019 | [12] -0.023 | [13] -0.133 | [14] 0.011 | [15] -0.01 | [16] -0.044 | [17] -0.129 | [18] 0.088

NOMO3 (UniProt P69849)
inactive: [1] -0.039 | [2] 0.077 | [3] 0.084 | [7] 0.019 | [9] -0.111

NME7 (UniProt Q9Y5B8)
inactive: [1] -0.187 | [2] -0.136 | [3] -0.027 | [4] 0.046 | [5] -0.091 | [6] 0.056 | [7] 0.033 | [8] -0.117 | [9] -0.14 | [10] 0.071 | [13] -0.245 | [15] -0.044 | [16] 0.009 | [17] -0.001 | [18] -0.279

NME2P1 (UniProt O60361)
inactive: [1] -0.093 | [2] -0.066 | [3] -0.114 | [4] 0.079 | [5] -0.346 | [7] 0.27 | [8] -0.119 | [9] 0.058 | [10] 0.059 | [11] -0.236 | [12] -0.014 | [14] -0.107 | [15] -0.081 | [16] -0.013 | [17] -0.055 | [18] 0.073

NOL7 (UniProt Q9UMY1)
inactive: [1] -0.054 | [2] 0.065 | [3] -0.661 | [4] 0.415 | [5] 0.124 | [6] 0.003 | [7] 0.187 | [8] -0.052 | [9] 0.284 | [10] -0.107 | [11] -0.016 | [12] 0.146 | [13] 0.183 | [14] -0.073 | [15] -0.257 | [16] -0.148 | [17] 0.154 | [18] -0.156

NR2C2 isoform 2 (UniProt P49116)
inactive: [1] 0.016 | [2] 0.063 | [3] 0.054 | [4] -0.076 | [5] -0.047 | [6] 0.022 | [7] 0.011 | [8] 0.009 | [9] -0.093 | [10] 0.027 | [11] -0.033 | [12] -0.091 | [13] -0.026 | [14] 0.021 | [15] -0.003 | [16] -0.038 | [17] -0.184 | [18] 0.026

NMT2 (UniProt O60551)
inactive: [1] 0.043 | [2] -0.187 | [3] 0.059 | [4] 0.018 | [5] 0.013 | [6] 0.023 | [7] -0.013 | [8] -0.167 | [9] 0.021 | [10] 0.047 | [11] 0.018 | [12] 0.083 | [13] -0.088 | [14] -0.031 | [15] -0.003 | [16] 0.03 | [17] -0.015 | [18] 0.041

NPM3 (UniProt O75607)
inactive: [1] -0.125 | [2] 0.001 | [4] -0.043 | [5] 0.109 | [6] -0.011 | [7] 0.024 | [8] 0.022 | [9] 0.017 | [10] -0.027 | [11] -0.045 | [12] 0.062 | [13] 0.101 | [14] -0.121 | [15] 0.043 | [16] -0.028 | [17] 0.071 | [18] -0.035

NPC1 (UniProt O15118)
active: [9] -0.211
inactive: [1] 0.016 | [2] -0.132 | [3] 0.024 | [4] -0.102 | [5] 0.015 | [6] -0.038 | [7] -0.087 | [8] -0.148 | [10] -0.02 | [11] 0.024 | [12] -0.017 | [13] -0.001 | [14] 0.05 | [15] 0.004 | [16] 0.012 | [17] 0.038 | [18] -0.027

NGLY1 (UniProt Q96IV0)
inactive: [1] 0.017 | [2] -0.079 | [3] -0.01 | [4] 0.093 | [5] -0.043 | [6] 0.032 | [7] 0.001 | [8] -0.059 | [9] 0.039 | [10] 0.055 | [11] -0.068 | [12] -0.038 | [13] -0.064 | [14] 0.021 | [15] -0.009 | [16] -0.034 | [17] -0.067 | [18] -0.062

NIPSNAP2 (UniProt O75323)
inactive: [1] -0.014 | [2] 0.083 | [3] 0.068 | [4] -0.041 | [5] 0.057 | [6] 0.105 | [7] -0.106 | [8] 0.162 | [9] 0.02 | [10] -0.012 | [11] 0.082 | [12] -0.003 | [13] 0.05 | [14] -0.033 | [15] 0.185 | [16] 0.025 | [17] -0.058 | [18] 0.041

NOL11 (UniProt Q9H8H0)
inactive: [1] -0.036 | [2] 0.084 | [3] -0.017 | [4] -0.041 | [5] -0.061 | [6] -0.015 | [7] -0.005 | [8] 0.097 | [9] -0.042 | [10] 0.017 | [11] -0.016 | [12] 0.017 | [13] 0.017 | [14] 0.11 | [15] -0.006 | [16] 0.001 | [17] 0.036 | [18] -0.012

NKAP (UniProt Q8N5F7)
active: [12] -0.792
inactive: [2] -0.113 | [3] -0.118 | [4] 0.013 | [5] 0.041 | [6] -0.034 | [7] 0.042 | [8] 0.001 | [9] -0.016 | [10] -0.081 | [11] 0.059 | [13] 0.086 | [14] 0.015 | [15] -0.033 | [16] -0.253 | [17] -0.138 | [18] -0.169

NPRL3 (UniProt Q12980)
inactive: [20] -0.124 | [6] -0.007 | [13] 0.141

NRBP2 (UniProt Q9NSY0)
inactive: [2] -0.015 | [7] -0.068 | [8] -0.008 | [16] -0.12
